Results are given in words; binding and its absence hold for the method and conditions named. Binding seen in cells or lysates may run through a third protein. A yes stands for co-enrichment or nearness to the bait. Other partners may have been found. Sequences can lack the tags named with a protein.

Protein sequences, listed by entry. Tags and fused reporters are not part of them.
UniProt Q5VT06: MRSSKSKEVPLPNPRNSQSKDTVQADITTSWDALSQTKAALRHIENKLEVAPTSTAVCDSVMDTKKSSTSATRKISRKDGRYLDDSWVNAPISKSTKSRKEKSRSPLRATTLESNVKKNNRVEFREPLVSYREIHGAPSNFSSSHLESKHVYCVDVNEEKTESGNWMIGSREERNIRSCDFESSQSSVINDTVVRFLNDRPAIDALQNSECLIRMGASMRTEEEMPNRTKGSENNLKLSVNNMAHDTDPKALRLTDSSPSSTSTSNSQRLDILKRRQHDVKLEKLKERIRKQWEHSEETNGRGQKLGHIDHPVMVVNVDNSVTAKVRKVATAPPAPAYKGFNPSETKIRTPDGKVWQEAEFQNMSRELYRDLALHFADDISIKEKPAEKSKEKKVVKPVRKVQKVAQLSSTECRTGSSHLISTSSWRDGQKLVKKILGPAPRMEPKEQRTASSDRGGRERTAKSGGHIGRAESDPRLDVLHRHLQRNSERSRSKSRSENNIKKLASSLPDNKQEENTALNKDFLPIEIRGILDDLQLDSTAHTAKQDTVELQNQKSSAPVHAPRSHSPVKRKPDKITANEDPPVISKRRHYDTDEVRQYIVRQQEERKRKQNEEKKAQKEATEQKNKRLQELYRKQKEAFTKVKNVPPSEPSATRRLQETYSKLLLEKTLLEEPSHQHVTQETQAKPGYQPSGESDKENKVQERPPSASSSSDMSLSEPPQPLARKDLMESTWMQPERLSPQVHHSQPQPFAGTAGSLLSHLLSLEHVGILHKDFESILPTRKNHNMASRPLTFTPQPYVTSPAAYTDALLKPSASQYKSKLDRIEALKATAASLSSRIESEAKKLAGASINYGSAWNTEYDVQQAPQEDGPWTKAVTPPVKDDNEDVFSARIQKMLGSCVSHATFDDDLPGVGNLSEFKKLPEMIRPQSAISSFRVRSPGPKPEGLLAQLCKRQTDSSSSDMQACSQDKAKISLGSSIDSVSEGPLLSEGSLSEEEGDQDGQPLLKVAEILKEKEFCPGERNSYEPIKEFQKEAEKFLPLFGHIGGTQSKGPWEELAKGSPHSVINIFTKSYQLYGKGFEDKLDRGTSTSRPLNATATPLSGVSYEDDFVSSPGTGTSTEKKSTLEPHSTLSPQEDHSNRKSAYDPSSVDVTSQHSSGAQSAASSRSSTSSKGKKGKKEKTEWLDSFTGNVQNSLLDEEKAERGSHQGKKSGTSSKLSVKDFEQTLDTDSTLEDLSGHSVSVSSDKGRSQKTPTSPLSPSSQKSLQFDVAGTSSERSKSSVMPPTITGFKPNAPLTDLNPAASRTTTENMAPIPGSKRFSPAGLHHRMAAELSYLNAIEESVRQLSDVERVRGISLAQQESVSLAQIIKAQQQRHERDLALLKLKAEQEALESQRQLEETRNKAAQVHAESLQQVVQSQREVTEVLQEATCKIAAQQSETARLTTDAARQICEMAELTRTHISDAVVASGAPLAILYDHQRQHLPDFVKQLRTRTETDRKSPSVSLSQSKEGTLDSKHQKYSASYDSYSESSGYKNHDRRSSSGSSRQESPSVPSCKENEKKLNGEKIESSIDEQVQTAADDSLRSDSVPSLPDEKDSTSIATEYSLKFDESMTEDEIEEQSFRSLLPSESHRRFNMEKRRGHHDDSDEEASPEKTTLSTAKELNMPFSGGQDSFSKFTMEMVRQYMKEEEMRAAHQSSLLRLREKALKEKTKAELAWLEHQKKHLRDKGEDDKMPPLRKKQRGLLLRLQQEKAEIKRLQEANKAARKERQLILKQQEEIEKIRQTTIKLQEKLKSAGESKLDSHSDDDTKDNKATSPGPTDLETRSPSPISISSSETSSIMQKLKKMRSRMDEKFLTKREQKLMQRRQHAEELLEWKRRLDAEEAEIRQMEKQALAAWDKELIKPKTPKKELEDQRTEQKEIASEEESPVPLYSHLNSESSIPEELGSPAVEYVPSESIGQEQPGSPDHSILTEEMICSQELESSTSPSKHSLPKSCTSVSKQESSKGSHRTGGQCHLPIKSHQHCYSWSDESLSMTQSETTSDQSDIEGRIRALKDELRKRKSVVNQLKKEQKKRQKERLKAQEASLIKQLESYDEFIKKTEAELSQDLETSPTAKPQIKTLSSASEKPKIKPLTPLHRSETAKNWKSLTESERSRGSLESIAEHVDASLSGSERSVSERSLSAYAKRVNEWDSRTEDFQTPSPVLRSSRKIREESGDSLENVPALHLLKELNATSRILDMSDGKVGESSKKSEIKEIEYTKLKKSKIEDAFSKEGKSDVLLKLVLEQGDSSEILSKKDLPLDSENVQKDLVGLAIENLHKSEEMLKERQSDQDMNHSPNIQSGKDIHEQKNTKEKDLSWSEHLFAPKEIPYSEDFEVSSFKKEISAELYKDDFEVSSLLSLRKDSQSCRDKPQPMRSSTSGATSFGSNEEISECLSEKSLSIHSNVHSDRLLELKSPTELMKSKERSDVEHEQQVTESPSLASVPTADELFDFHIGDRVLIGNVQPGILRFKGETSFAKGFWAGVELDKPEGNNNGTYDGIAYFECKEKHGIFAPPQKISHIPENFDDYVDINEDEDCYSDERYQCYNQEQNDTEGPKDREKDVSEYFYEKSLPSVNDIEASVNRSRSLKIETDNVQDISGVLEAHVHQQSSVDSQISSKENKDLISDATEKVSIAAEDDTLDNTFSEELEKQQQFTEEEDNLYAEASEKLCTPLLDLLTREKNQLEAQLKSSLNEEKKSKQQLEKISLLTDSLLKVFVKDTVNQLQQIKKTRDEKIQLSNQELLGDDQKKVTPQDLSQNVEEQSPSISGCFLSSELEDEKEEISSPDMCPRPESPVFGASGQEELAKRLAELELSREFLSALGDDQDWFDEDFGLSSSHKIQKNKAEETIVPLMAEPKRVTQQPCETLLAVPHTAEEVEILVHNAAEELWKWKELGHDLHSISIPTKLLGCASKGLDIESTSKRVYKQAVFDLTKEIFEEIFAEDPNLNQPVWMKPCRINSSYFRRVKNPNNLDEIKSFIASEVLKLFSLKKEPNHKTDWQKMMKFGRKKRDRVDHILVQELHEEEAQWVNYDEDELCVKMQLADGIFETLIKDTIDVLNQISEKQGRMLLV
UniProt Q15154: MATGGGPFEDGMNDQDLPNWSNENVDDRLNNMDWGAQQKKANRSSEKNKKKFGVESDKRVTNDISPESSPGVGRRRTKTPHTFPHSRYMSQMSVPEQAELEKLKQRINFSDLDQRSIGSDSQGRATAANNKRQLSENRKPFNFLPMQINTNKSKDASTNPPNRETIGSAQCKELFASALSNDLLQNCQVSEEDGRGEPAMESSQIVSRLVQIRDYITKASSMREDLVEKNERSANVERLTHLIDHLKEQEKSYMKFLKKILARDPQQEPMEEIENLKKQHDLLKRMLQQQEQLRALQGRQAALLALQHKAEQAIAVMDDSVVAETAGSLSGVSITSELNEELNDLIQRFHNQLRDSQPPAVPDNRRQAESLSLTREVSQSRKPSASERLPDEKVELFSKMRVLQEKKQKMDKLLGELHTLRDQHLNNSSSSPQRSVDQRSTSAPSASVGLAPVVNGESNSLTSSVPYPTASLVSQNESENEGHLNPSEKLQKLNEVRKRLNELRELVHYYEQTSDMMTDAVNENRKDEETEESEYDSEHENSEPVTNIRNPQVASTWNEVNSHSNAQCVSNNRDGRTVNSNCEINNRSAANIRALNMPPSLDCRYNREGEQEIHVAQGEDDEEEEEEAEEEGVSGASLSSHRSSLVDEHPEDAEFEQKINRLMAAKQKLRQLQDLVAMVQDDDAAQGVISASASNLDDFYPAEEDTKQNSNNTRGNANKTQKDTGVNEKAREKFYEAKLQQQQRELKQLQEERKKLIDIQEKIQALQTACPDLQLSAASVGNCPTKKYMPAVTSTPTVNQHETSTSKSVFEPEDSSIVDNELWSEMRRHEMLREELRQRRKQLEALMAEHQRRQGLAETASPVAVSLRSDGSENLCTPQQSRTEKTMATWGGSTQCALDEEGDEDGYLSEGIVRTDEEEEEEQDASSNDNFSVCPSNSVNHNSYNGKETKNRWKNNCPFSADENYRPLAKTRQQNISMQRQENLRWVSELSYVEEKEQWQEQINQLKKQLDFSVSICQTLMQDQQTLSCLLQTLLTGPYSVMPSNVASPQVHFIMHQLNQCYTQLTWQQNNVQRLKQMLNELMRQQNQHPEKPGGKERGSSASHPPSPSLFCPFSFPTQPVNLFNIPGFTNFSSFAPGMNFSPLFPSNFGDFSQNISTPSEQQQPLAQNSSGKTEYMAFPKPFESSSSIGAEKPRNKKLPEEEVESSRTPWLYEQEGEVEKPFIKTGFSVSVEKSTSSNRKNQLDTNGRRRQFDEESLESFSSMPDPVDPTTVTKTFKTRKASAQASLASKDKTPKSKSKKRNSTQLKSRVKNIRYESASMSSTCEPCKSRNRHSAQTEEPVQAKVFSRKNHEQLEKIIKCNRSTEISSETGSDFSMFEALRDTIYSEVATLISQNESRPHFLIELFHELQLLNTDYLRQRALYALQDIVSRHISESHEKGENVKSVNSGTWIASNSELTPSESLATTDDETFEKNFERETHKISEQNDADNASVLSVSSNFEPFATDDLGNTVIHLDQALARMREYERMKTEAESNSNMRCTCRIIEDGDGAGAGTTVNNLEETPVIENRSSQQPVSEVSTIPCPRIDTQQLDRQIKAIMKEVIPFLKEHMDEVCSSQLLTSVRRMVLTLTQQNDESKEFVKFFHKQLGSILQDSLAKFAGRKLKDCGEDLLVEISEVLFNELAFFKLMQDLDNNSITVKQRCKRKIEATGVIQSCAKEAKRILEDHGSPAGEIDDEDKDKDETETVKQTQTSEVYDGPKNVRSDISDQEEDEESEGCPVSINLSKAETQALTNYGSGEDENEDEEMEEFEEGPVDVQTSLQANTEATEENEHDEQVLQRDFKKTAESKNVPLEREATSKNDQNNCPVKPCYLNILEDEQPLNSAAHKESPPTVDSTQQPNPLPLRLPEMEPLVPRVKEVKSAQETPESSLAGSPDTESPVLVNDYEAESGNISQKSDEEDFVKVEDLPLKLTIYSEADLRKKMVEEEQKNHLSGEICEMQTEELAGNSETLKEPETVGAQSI

The experiment concerns the target T1, FLAG-CEP19 (UniProt Q96LK0).
T1 sequence: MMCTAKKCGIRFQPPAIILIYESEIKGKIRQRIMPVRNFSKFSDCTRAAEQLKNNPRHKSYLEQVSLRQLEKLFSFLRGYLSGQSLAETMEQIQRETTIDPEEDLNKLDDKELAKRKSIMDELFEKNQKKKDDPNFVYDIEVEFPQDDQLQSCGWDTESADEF
Put plainly: affinity purification with mass spectrometry; FLAG-CEP19 from tetracycline-induced 293 cells purified on M2-FLAG magnetic beads, on-bead digest; lysis in 50 mM HEPES-KOH pH 8.0, 100 mM KCl, 2 mM EDTA, 0.1% NP-40, 10% glycerol; FLAG-only controls, SAINTexpress scoring.

Turning to CEP350 (from UniProt Q5VT06 1-3117), the binding result is reported as “binds”. Take PCM1 (from UniProt Q15154 1-2024): the binding result is “binds”.

B1: RABL2A (protein, UniProt Q9UBK7 1-228)
chain: MAEDKTKPSELDQGKYDADDNVKIICLGDSAVGKSKLMERFLMDGFQPQQLSTYALTLYKHTATVDGKTILVDFWDTAGQERFQSMHASYYHKAHACIMVFDIQRKVTYRNLSTWYTELREFRPEIPCIVVANKIDDINVTQKSFNFAKKFSLPLYFVSAADGTNVVKLFNDAIRLAVSYKQNSQDFMDEIFQELENFSLEQEEEDVPDQEQSSSIETPSEEVASPHS
In the case of B1, the binding result is “binds”.

B2: FGFR1OP (FOP) (protein, UniProt O95684 1-399)
chain: MAATAAAVVAEEDTELRDLLVQTLENSGVLNRIKAELRAAVFLALEEQEKVENKTPLVNESLKKFLNTKDGRLVASLVAEFLQFFNLDFTLAVFQPETSTLQGLEGRENLARDLGIIEAEGTVGGPLLLEVIRRCQQKEKGPTTGEGALDLSDVHSPPKSPEGKTSAQTTPSKIPRYKGQGKKKTSGQKAGDKKANDEANQSDTSVSLSEPKSKSSLHLLSHETKIGSFLSNRTLDGKDKAGLCPDEDDMEGDSFFDDPIPKPEKTYGLRKEPRKQAGSLASLSDAPPLKSGLSSLAGAPSLKDSESKRGNTVLKDLKLISDKIGSLGLGTGEDDDYVDDFNSTSHRSEKSEISIGEEIEEDLSVEIDDINTSDKLDDLTQDLTVSQLSDVADYLEDVA
As to B2, the binding entry is “binds”.

Values taken from paper PMC5493781.
